Results published in US12264352B2 (Research Foundation of the City University of New York, priority 2016, dated 2025).

Experiment: peptide synthesis
Conditions: whole synthesis, reversed-phase HPLC and mass spectrometry

Substance: PEPTIDE1{[Nap].F.F.[K(NBD)].[Yp]}$$$$V2.0
- final HPLC purity: 99.9%
- final purity (method not given): 75.6%

Strings that start with PEPTIDE1 are HELM notation: dots part the residues, brackets hold end groups and non-standard residues.
